Experimental data: patent US20260209275A1, “PEPTIDE(S), COMPOSITION(S) AND METHOD(S) HAVING BROAD SPECTRUM ACTIVITY AGAINST CROP INSECTS” (TELLURIS BIOTECH INDIA PRIVATE LIMITED, priority 2022, published 2026)
At least one compound was matched to its structure with a doubt left.

Legend:
Type in all cases: in vivo
[1] = test system: Gram pod borer, Helicoverpa armigera (Hübner, 1808); test: Leaf dip assay (gram leaf twig, agar) against gram pod borer larvae
[2] = test system: Aphids, Aphis gossypii Glover, 1877; test: Leaf disc dip assay (1% agar plate) against aphids; conditions: single peptide 0.1 mg/ml; reading time not stated (assessed 24 h and 48 h)
[3] = test system: Tobacco cutworm, Spodoptera litura (Fabricius, 1775); test: Leaf disc dip bioassay (cotton/beans leaf) against tobacco cutworm larvae
[4] = test system: Fall armyworm, Spodoptera frugiperda (J. E. Smith); test: Leaf disc dip bioassay (maize leaf) against fall armyworm larvae
[5] = test system: Thrips, Thrips Parvispinus (Karny); test: Fruit (beans pod) disc dip assay against thrips larvae; conditions: single peptide 0.5 mg/ml; reading time not stated (assessed 24 and 48 hrs)
[6] = single peptide 0.5 mg/ml, reading time not stated (assessed 24, 48, 72 h)

Compound | Observed Response (Percent mortality) SEQ ID No. X / SEQ ID No. Y ([1]; single peptide 0.3 mg/ml) [%] | Observed Response (Percent mortality) SEQ ID No. X / SEQ ID No. Y ([1]; single peptide 0.6 mg/ml) [%] | Observed Response (Percent mortality) SEQ ID No. X / SEQ ID No. Y [2] [%] | Observed Response (Percent mortality) SEQ ID No. X / SEQ ID No. Y ([3]; single peptide 0.1 mg/ml, reading time not stated (assessed 24 and 48 h)) [%] | Observed Response (Percent mortality) SEQ ID No. X / SEQ ID No. Y ([3]; single peptide 0.5 mg/ml) [%] | Observed Response (Percent mortality) SEQ ID No. X / SEQ ID No. Y [4, 6] [%] | Observed Response (Percent mortality) SEQ ID No. X / SEQ ID No. Y ([1]; single peptide 0.25 mg/ml, reading time not stated (assessed 24 h and 48 h)) [%] | Observed Response (Percent mortality) SEQ ID No. X / SEQ ID No. Y ([4]; single peptide 0.1 mg/ml) [%] | Observed Response (Percent mortality) SEQ ID No. X / SEQ ID No. Y ([4]; single peptide 0.125 mg/ml) [%] | Observed Response (Percent mortality) SEQ ID No. X / SEQ ID No. Y ([4]; single peptide 0.15 mg/ml) [%] | Observed Response (Percent mortality) SEQ ID No. X / SEQ ID No. Y [5] [%]
CC[C@H](C)[C@H](NC(=O)[C@H](CCC(N)=O)NC(=O)[C@H](CCC(N)=O)NC(=O)[C@H](CCC(=O)O)NC(=O)[C@H](CCCCN)NC(=O)[C@H](CCC(N)=O)NC(=O)[C@H](CCC(=O)O)NC(=O)[C@H](C)NC(=O)[C@@H](N)CCSC)C(=O)N[C@@H](CC(C)C)C(=O)N[C@@H](CCCNC(=N)N)C(=O)N[C@@H](CC(C)C)C(=O)N[C@@H](CCCNC(=N)N)C(=O)N[C@@H](CCC(=O)O)C(=O)N[C@@H](CO)C(=O)N[C@@H](Cc1c[nH]cn1)C(=O)N[C@@H](Cc1c[nH]cn1)C(=O)N[C@@H](Cc1c[nH]cn1)C(=O)N[C@@H](Cc1c[nH]cn1)C(=O)N[C@@H](Cc1c[nH]cn1)C(=O)N[C@@H](Cc1c[nH]cn1)C(=O)O [Seq. ID No. 3, MAEQKEQQILRLRES] | 2 | 16 | 15.2 | 13 | 37 |  |  |  |  |  | 
CSCC[C@H](N)C(=O)N[C@@H](Cc1c[nH]c2ccccc12)C(=O)N[C@@H](CCCNC(=N)N)C(=O)N[C@@H](Cc1ccccc1)C(=O)N[C@@H](CC(C)C)C(=O)N[C@@H](C)C(=O)N[C@H](C(=O)N[C@H](C(=O)N[C@H](C(=O)N[C@@H](CC(C)C)C(=O)N[C@@H](CCC(=O)O)C(=O)N[C@H](C(=O)N[C@@H](CC(C)C)C(=O)N[C@@H](CCCNC(=N)N)C(=O)N[C@@H](CCC(N)=O)C(=O)N[C@@H](Cc1c[nH]cn1)C(=O)N[C@@H](Cc1c[nH]cn1)C(=O)N[C@@H](Cc1c[nH]cn1)C(=O)N[C@@H](Cc1c[nH]cn1)C(=O)N[C@@H](Cc1c[nH]cn1)C(=O)N[C@@H](Cc1c[nH]cn1)C(=O)O)[C@@H](C)O)C(C)C)C(C)C)[C@@H](C)O [Seq. ID No. 2, MWRFLATVVLETLRQ] |  |  |  |  |  | 46.15 |  |  |  |  | 
CSCC[C@H](N)C(=O)N[C@@H](Cc1c[nH]c2ccccc12)C(=O)N[C@@H](CCCNC(=N)N)C(=O)N[C@@H](Cc1ccccc1)C(=O)N[C@@H](CC(C)C)C(=O)N[C@@H](C)C(=O)N[C@H](C(=O)N[C@H](C(=O)N[C@H](C(=O)N[C@@H](CC(C)C)C(=O)N[C@@H](CC(=O)O)C(=O)N[C@H](C(=O)N[C@@H](CC(C)C)C(=O)N[C@@H](CCCCN)C(=O)N[C@@H](CCC(N)=O)C(=O)N[C@@H](Cc1c[nH]cn1)C(=O)N[C@@H](Cc1c[nH]cn1)C(=O)N[C@@H](Cc1c[nH]cn1)C(=O)N[C@@H](Cc1c[nH]cn1)C(=O)N[C@@H](Cc1c[nH]cn1)C(=O)N[C@@H](Cc1c[nH]cn1)C(=O)O)[C@@H](C)O)C(C)C)C(C)C)[C@@H](C)O [Seq. ID No. 8, MWRFLATVVLDTLKQ] |  |  |  |  |  | 55 | 70.66 | 50 | 60 | 62.5 | 74
